# Results: patent publication US6043211A, “Method for inhibiting the activity of a platelet-derived growth factor receptor binding protein” (The Regents of the University of California, priority 1995, dated 2000)
# Chains of the proteins cited; added tags and fusions are not shown.
# UniProt P26450, whole entry: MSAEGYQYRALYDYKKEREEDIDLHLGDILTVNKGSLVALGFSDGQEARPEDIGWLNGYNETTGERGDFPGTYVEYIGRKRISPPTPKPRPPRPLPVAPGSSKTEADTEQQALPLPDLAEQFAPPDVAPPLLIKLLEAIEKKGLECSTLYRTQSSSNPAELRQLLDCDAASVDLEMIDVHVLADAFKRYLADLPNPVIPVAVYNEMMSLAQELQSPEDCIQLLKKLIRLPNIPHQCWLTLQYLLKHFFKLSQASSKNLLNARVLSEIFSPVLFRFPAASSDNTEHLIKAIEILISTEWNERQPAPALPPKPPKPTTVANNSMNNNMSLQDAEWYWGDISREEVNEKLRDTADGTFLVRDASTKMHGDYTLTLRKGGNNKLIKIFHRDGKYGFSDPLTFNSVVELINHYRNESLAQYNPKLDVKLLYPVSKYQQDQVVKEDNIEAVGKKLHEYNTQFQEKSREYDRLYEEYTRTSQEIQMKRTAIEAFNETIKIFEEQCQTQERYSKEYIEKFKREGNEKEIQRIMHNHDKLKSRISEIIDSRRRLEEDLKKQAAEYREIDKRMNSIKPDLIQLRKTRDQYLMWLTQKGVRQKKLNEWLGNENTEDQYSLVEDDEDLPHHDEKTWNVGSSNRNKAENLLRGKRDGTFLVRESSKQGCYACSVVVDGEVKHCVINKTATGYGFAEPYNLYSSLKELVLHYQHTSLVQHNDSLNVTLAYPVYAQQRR
# Not every detail of the peptide structures is certain; ends, links or a residue may be inferred. Peptide text beside a SMILES is read from it.
# Molecular target: T1, PI3 kinase association with type B PDGF receptor (Mus musculus, UniProt P26450)
# T1 construct: Cytoplasmic cell lysates from density-arrested BALB/c 3T3 cells were mixed with the immobilized receptor; endogenous in cells; host or cells: BALB/c 3T3 cell lysate (85 kD protein); receptor made in Sf9 insect cells with recombinant baculovirus
# Assay: In vitro association of PI3 kinase activity with immobilized baculovirus-expressed PDGF receptor
# Assay type: binding
# Details: concentrations of up to 100 μM
# Source text: An in vitro system was used to study the interaction of PDGF receptors and PI3 kinase. […] These phosphoproteins include the 85 kDa protein and a 110 kDa protein that have recently been correlated with PI3 kinase activity. In in vitro experiments, the type B PDGF receptor was expressed in an insect cell expression system, partially purified, and immobilized using anti-receptor antibodies and protein A Sepharose. The receptor was allowed to autophosphorylate in vitro, so that it would be in a conformation that mimicked the ligand-activated state of the receptor. Cytoplasmic cell lysates from density-arrested BALB/c 3T3 cells were mixed with the immobilized receptor and the complexes were washed extensively. PI3 kinase activity was found in the complex of proteins associated with the receptor (FIG. 1d). The receptor-associated phosphoproteins were detected by an in vitro kinase assay using ^32 P-ATP. At least four receptor-associated proteins with apparent molecular weights of 140 kD, 120/110 kD (sometimes a doublet), 85 kD and 74 kD were radiolabeled (the bands at 160 kD and 150 kD are the baculovirus-expressed receptor and its precursor, respectively). The 140 kD band has been previously identified as […] and the band at 74 kD includes the raf-1 kinase and probably another molecule as well. […]
smiles,measurement,value
CC[C@H](C)[C@H](NC(=O)[C@H](CO)NC(=O)[C@H](CCC(=O)O)NC(=O)[C@H](CC(=O)O)NC(=O)[C@H](CCCCN)NC(=O)[C@H](CO)NC(=O)[C@H](CCSC)NC(=O)[C@H](CC(=O)O)NC(=O)[C@H](CCSC)NC(=O)[C@H](Cc1ccc(O)cc1)NC(=O)CNC(=O)CN)C(=O)N[C@@H](CC(=O)O)C(=O)N[C@@H](Cc1ccc(O)cc1)C(=O)N[C@H](C(=O)N1CCC[C@H]1C(=O)N[C@@H](CCSC)C(=O)N[C@@H](CC(C)C)C(=O)N[C@@H](CC(=O)O)C(=O)N[C@@H](CCSC)C(=O)O)C(C)C [Y719] (H-GGYMDMSKDESIDYVPMLDM-OH),Effect on association between the receptor and the PI3 kinase,did not affect association between the receptor and the PI3 kinase
